Measurements reported in patent US9006185B2, “Use of cell-permeable peptide inhibitors of the JNK signal transduction pathway for the treatment of various diseases” (Xigen Inflammation Ltd., priority 2008, dated 2015).
For part of these data: Not every detail of the peptide structures is certain; ends, links or a residue may be inferred. For part of these data: For at least one compound, name, drawing or mass did not settle the structure. Ends that are not written are not given here.

Tests used:
C57BL/6N mice = conditions: MPTP-induced PD; cited from earlier work
TC-3 cells = assay: IL-1 induced pancreatic beta-cell death, peptide treatment; assay type: cell-based; conditions: one single addition 1 μM, 15 days of incubation with IL-1
Method: Inhibition of IL-1 induced pancreatic beta-cell death by the D-TAT-IB1(s) peptide was analyzed. TC-3 cells were incubated as described above for 30 minutes with one single addition of the indicated peptides (1, μM), then IL-1 (10 ng/ml) was added.
Apoptotic cells were then counted after two days of incubation with IL-1 by use of Propidium Iodide and Hoechst 33342 nuclear staining. A minimum of 1,000 cells were counted for each experiment. Standard Error of the Means (SEM) are indicated, n=5.
Long term inhibition of IL-1P induced cell-death by the D-TAT-IB1 peptide was also analyzed. TC-3 cells were incubated as above for 30 minutes with one single addition of the indicated peptides (1 μM), then IL-1 (10 ng/ml) was added, followed by addition of the cytokine every two days. Apoptotic cells were then counted after 15 days of incubation with IL-1 by use of propidium iodide and Hoechst 33342 nuclear staining. […] A minimum of 1.000 cells were counted for each experiment.

[1] = system: recombinant JNK1, JNK2 and JNK3; assay: Solid phase kinase assay, phosphorylation of c-Jun, ATF2 and Elk1 by recombinant JNKs; assay type: biochemical; conditions: dose response 0-25 μM
Method: The effects of the peptides on JNKs-mediated phosphorylation of their target transcription factors were investigated in vitro. Recombinant and non activated JNK1, JNK2 and JNK3 were produced using a TRANSCRIPTION AND TRANSLATION rabbit reticulocyte lysate kit (Promega) and used in solid phase kinase assays with c-Jun, ATF2 and Elk1, either alone or fused to glutathione-S-transferase (GST), as substrates. Dose response studies were performed wherein L-TAT or L-TAT-IB1(s) peptides (0-25 μM) were mixed with the recombinant JNK1, JNK2, or JNK3 kinases in reaction buffer (20 mM Tris-acetate, 1 mM EGTA, 10 mM p-nitrophenyl-phosphate (pNPP), 5 mM sodium pyrophosphate, 10 mM p-glycerophosphate, 1 mM dithiothreitol) for 20 minutes. The kinase reactions were then initiated by the addition of 10 mM MgCl2 and 5 pCi ^33P-dATP and 1 μg of either GST-Jun (aa 1-89), GST-AFT2 (aa 1-96) or GST-ELK1 (aa 307-428). GST-fusion proteins were purchased from Stratagene (La Jolla, Calif.).
Ten μL of glutathione-agarose beads were also added to the mixture. Reaction products were then separated by SDS-PAGE on a denaturing 10% polyacrylamide gel. Gels were dried and subsequently exposed to X-ray films (Kodak). […] The ability of D-TAT, D-TAT-IB1(s) and L-TAT-IB1(s) peptides (0-250 μM dosage study) to inhibit GST-Jun (aa 1-73) phosphorylation by recombinant JNK1, JNK2, and JNK3 by were analyzed as described above. […]

Compound	c-Jun phosphorylation, dopaminergic neuron apoptosis, dopamine level (C57BL/6N mice)	long term protection from IL-1 induced cell death (TC-3 cells)	peptide dose (as low as) giving nearly complete inhibition of c-Jun, ATF2 and Elk1 phosphorylation by JNKs [1]
Oc1c2ccccc2c2c3c(cccc13)N=N2 [SP600125]	reduce the levels of c-Jun phosphorylation, to protect dopaminergic neurons from apoptosis, and to partly restore the level of dopamine	–	–
GRKKRRQRRRPPRPKRPTTLNLFPQVPRSQD [L-TAT-IB1(s)]	–	not	2.5 µM
